Primary screen of a compound library

Mtb glucose medium: 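Growth of Mycobacterium tuberculosis over 3 days (7H9 medium with glucose and tyloxapol); the read-out is not stated. Compounds at 50 µM. Higher reads as more growth inhibition (inferred: compounds with an IC50 in retests scored well above the rest). Size under these conditions: about 69,000 compounds, about 760 of them at 50% or above in at least one test.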
Mtb cholesterol medium: 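Phenotypic screen: M. tuberculosis growth, cholesterol and DPPC medium, 4 days; the read-out is not stated. Tested at 50 µM. Direction is inferred from retests: higher values go with more growth inhibition. About 69,000 compounds were tested under these conditions; 0.54% (about 370) showed 50% or more at least once.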

Results are given as percent effect. The controls that fix the scale are not given in the record; negative values are as filed. Compounds were drawn at random from those tested, without regard to their results. Two or more numbers in one place are separate tests of the same structure; such repeats can differ widely.

{"structure": "OCc1c(Cl)ncn1-c1ccc(F)cc1", "Mtb glucose medium": -24.91, "Mtb cholesterol medium": "-3.349 and -10.8"}
{"structure": "Cc1cc(CCC(=O)N2CCOCC2)ccc1Br", "Mtb glucose medium": 24.04, "Mtb cholesterol medium": 3.216}
{"structure": "CC(C)[C@H]1CN(S(C)(=O)=O)C[C@@H]1NC(=O)c1ccnc(N)c1", "Mtb glucose medium": "-4.703 and 4.588", "Mtb cholesterol medium": 4.267}
{"structure": "COc1ccc(CN2CC[C@H](c3nnc(-c4ccco4)o3)C2)cc1", "Mtb glucose medium": "-38.64 and 30.16", "Mtb cholesterol medium": -13.16}
{"structure": "O=S(=O)(c1ccc(F)cc1)N1CCCC(c2nccs2)C1", "stereo": "centres unmarked", "Mtb glucose medium": 9.929, "Mtb cholesterol medium": 6.085}
{"structure": "Cc1cc(C(=O)Nc2ccc(OCC3CCOCC3)cc2)[nH]n1", "Mtb glucose medium": "7.023 and 2.348", "Mtb cholesterol medium": "-13.42 and -1.124"}
{"structure": "N#Cc1ccc(CN2CCc3sccc3C2)c(F)c1", "Mtb glucose medium": 13.52, "Mtb cholesterol medium": 8.29}
{"structure": "[H][C@@]12CN(C(=O)COC)C[C@]1([H])C(=O)N(Cc1cccc(F)c1)C2", "Mtb glucose medium": -10.34, "Mtb cholesterol medium": -1.59}
{"structure": "Cc1nc(CCNC(=O)NCc2cccc(N(C)C)n2)cs1", "Mtb glucose medium": 10.71, "Mtb cholesterol medium": 14.37}
{"structure": "[H][C@@]12CCC(=O)N(CC(C)C)[C@]1([H])CCN(Cc1ncc[nH]1)C2", "Mtb glucose medium": 23.61, "Mtb cholesterol medium": "-1.396 and -1.149"}
{"structure": "CCC(CC)C(=O)N1CCN(Cc2cc(=O)c3ccccc3[nH]2)CC1", "Mtb glucose medium": 27.53, "Mtb cholesterol medium": 8.949}
{"structure": "CCCc1nnc(N(C)CC2CCN(CC(C)C)C2)o1", "stereo": "centres unmarked", "Mtb glucose medium": 18.4, "Mtb cholesterol medium": -6.167}
{"structure": "Cc1nc(CN(C)CC2CCCN2c2cccnn2)oc1C", "stereo": "centres unmarked", "Mtb glucose medium": -13.61, "Mtb cholesterol medium": -14.04}
{"structure": "Cc1c[nH]c(CN2CCOC(c3ccc(Cl)cc3)C2)c(C)c1=O", "stereo": "centres unmarked", "Mtb glucose medium": -2.791, "Mtb cholesterol medium": -1.461}
{"structure": "Cc1cc(CN(C)C(=O)c2ccc(F)c(C(F)(F)F)c2)no1", "Mtb glucose medium": 18.31, "Mtb cholesterol medium": 13.63}
{"structure": "CCOCC(=O)N1CCC(c2nccn2C)CC1", "Mtb glucose medium": -21.05, "Mtb cholesterol medium": -20.97}
{"structure": "O=C(CCc1ccc(-n2cnnn2)cc1)Nc1nncs1", "Mtb glucose medium": -24.59, "Mtb cholesterol medium": 7.092}
{"structure": "Cc1nc(N2CCOCC2)nc2c1CCN(C(=O)NC1CCCC1)CC2", "Mtb glucose medium": -35.51, "Mtb cholesterol medium": -11.26}
{"structure": "O=C(O)C(F)(F)F.[H][C@@]12CCN(C3CCOCC3)C[C@]1([H])[C@H](C(=O)NC1CC1)CCO2", "Mtb glucose medium": 9.237, "Mtb cholesterol medium": -6.894}
{"structure": "CC(=O)N1CCCC1c1csc(Nc2cnccn2)n1", "stereo": "centres unmarked", "Mtb glucose medium": -14.53, "Mtb cholesterol medium": -17.87}
{"structure": "CC(C)c1nsc(N2CCn3c(nnc3C(F)(F)F)C2)n1", "Mtb glucose medium": "-9.833 and 3.659", "Mtb cholesterol medium": 14.19}
{"structure": "CN(C)c1cc(C(=O)Nc2ccccc2C(=O)NC(C)(C)C)ccn1", "Mtb glucose medium": "13.28 and 13.85", "Mtb cholesterol medium": 54.55}
{"structure": "CSCC(CCO)Nc1nc(C(F)F)nc2ccccc12", "stereo": "centres unmarked", "Mtb glucose medium": "4.395 and 4.419", "Mtb cholesterol medium": 3.24}

Measurements from “University of Dundee, Small-Polar-MMV Screening Library” (2021), ChEMBL document CHEMBL3988442.